The results in this text go back to PubChem BioAssay AID2685 (National Center for Advancing Translational Sciences (NCATS), 2010).

This is one part of the list. The main result of the screen is listed elsewhere. These columns were measured beside it and carry no call. The list favours compounds with an active or inconclusive main result. Potencies come from curve fits of mixed quality, noted in brackets.

The nature of the assay: qHTS Assay for Lipid Storage Modulators in Drosophila S3 Cells.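 For cell number change: cells counted by Cell Tracker Red CMTPX staining in the red channel.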 The settings on record: BODIPY lipid droplet fluorescence, 18-24 h; for cell number change: measured here: cell count max response, cells fed with added oleic acid. In outline: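 Drosophila S3 cells got compounds at several concentrations plus oleic acid (400 uM solution). Laser-scanning cytometry with 488 nm excitation read lipid droplets at 500-530 nm and cells at 575-640 nm. Percent activity was relative to 20 uM Triacsin C.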

[1] abbreviates: measured here: cell number channel AC50, cells fed with added oleic acid.
Setting [2] is: measured here: lipid fluorescence (Fed channel) AC50, cells fed with added oleic acid.

For `C/C(=N\Nc1nnc(-c2ccccc2)c(-c2ccccc2)n1)c1cccc([N+](=O)[O-])c1`, the cell number change was 14.5%.

For the compound `CC(Sc1nnc(-c2ccccc2F)n1N)C(=O)NCC1CCCO1` (configuration not stated), the cell number change was 75%. Moreover, under setting [1], the AC50 was 0.58 µM [rising, full curve]. Also, the AC50 under setting [2] was 6.51 µM [rising, single point].

With `CCOC(=O)c1cnn(-c2nc(-c3cccc(F)c3)cs2)c1C(F)(F)F`, the cell number change was 1.94%. For the same compound, under setting [2], the AC50 was 29.1 µM [rising, single point].

For `Cc1ccc(C2C(C(=O)c3cc4ccccc4o3)=C(O)C(=O)N2c2cc(C)on2)cc1` (configuration not stated), the cell number change is 39.2%. The AC50 under setting [1] is 25.9 µM [rising, single point]. The AC50 under setting [2] was 29.1 µM [rising, single point].

`Cn1c(=O)oc2cc(C(=O)c3ccccc3)ccc21`: the cell number change came to 150%. Under setting [1], the AC50 is 0.411 µM [rising, single point]. Also, the AC50 under setting [2] was 0.651 µM [rising, single point].

Turning to `CC(C(=O)NC(c1ccccc1)c1ccccc1)N1CCOCC1` (configuration not stated), the cell number change was determined as 9.21%. The AC50 under setting [2] is 5.62 µM [falling, single point].

In the case of `COc1ccc2[nH]c3c(Cl)ncnc3c2c1`, the cell number change was -24.2%. Moreover, under setting [2], the AC50 is 1.84 µM [falling, single point].

Regarding `CC1(C)NC(=O)N(CCCSc2ccc(Cl)cc2)C1=O`, the cell number change was -72.4%. Moreover, the AC50 under setting [1] was 32.6 µM [falling, single point]. For the same compound, under setting [2], the AC50 is 18.4 µM [falling, partial curve].

In the case of `Cc1ccsc1CN(C)CC(=O)NCC(=O)Nc1ccc(F)cc1`, the cell number change was -13.9%.

On to `O=C(NC1CC2CCCC(C1)N2C(=O)N1CCCCC1)C1CCCCC1` (configuration not stated), for which the cell number change came out at 1.24%. Further, the AC50 under setting [2] was 0.731 µM [falling, full curve].

Turning to `CC(=O)Nc1ccc(S(=O)(=O)N[C@@H](C)C(=O)N(C)Cc2cccs2)cc1`, the cell number change was -1.5%. Also, under setting [2], the AC50 was 3.66 µM [falling, single point].

Turning to `CCCN1CCN(c2nc(-c3cccs3)nc3ccccc23)CC1`, the cell number change is -72.8%. Also, the AC50 under setting [1] is 29.1 µM [falling, partial curve].

Regarding `O=C1c2cccc3c(N4CCCCC4)ccc(c23)C(=O)N1CCO`, the cell number change was -94.7%. Further, under setting [1], the AC50 is 5.8 µM [falling, full curve]. Further, the concentration at half-maximal activity (AC50) under setting [2] is 3.66 µM [falling, full curve].

`COc1ccc(OCC(O)CNC(=O)/C=C/c2cccc([N+](=O)[O-])c2)cc1` (configuration not stated): the cell number change is 48.9%. Further, the AC50 under setting [1] is 29.1 µM [rising, single point]. For the same compound, the AC50 under setting [2] was 6.51 µM [falling, single point].

With `O=C(CSc1nnc2c(n1)[nH]c1ccccc12)NCc1ccco1`, the cell number change was -11.7%. Also, under setting [1], the AC50 is 1.16 µM [rising, partial curve].

With `Cc1cc(C)nc(N/N=C2/CCCC/C2=C\c2ccccc2)n1`, the cell number change was -0.244%. For the same compound, the AC50 under setting [1] was 0.58 µM [rising, single point]. Further, the AC50 under setting [2] is 0.58 µM [rising, single point].

On to `COc1cccc(-c2ccc(C#N)c(SCC(=O)NCCc3ccc(Cl)cc3)n2)c1`, for which the cell number change was -28.3%. Also, the AC50 under setting [2] is 13 µM [falling, single point].

On to `COc1ccc(Cc2nc3ccc(C(=O)NC(C)c4cnn(C)c4)cc3o2)cc1` (configuration not stated), for which the cell number change was 23.5%.

As to `O=C(NCCC1=CCCCC1)C1CCN(C(=O)c2ccc(Cl)cc2)CC1`, the cell number change was -19.6%. Besides, the AC50 under setting [2] was 13 µM [falling, single point].

In the case of `NC(=O)CN1CCN(C(=O)NC2CCCCC2)CC1`, the cell number change was 28.1%. Also, the AC50 under setting [2] is 0.291 µM [falling, full curve, poor fit].

With `Cc1noc(C)c1COC(=O)c1ccccc1Oc1ccccc1`, the half-maximal activity concentration (AC50) under setting [1] is 2.31 µM [rising, single point].

For `COc1cccc(/C=C2/NC(=O)N(CC(=O)Nc3ccc(C)cc3)C2=O)c1OCc1cccc(C(=O)O)c1`, the cell number change amounted to 36.2%. Moreover, under setting [1], the AC50 was 32.6 µM [rising, single point].

With `CCCn1c(=O)c2ccccc2n2c(SCc3nnc(-c4ccccc4Br)o3)nnc12`, the cell number change is -7.76%. The AC50 under setting [2] is 29.1 µM [rising, single point].

For `CC(C)(C)c1ccc(C(=O)Nc2ccc(CC(=O)O)cc2)o1`, the cell number change is 3.42%. The AC50 under setting [2] is 20.6 µM [falling, partial curve].

Take `CCOc1ccc(-n2c(=S)sc3c(=O)[nH]c(SCC(=O)NCc4ccco4)nc32)cc1`: the cell number change stood at 46.5%. Moreover, under setting [2], the AC50 was 6.51 µM [falling, single point].

With `COc1ccc(/C=C(\NC(=O)c2ccco2)C(=O)NCc2ccco2)cc1`, the cell number change is -13.2%.

Regarding `CCn1c2ccccc2c2cc(/C=N/n3c(C)nnc3C)ccc21`, the cell number change is -30.8%. Further, under setting [1], the AC50 is 5.17 µM [falling, single point]. In addition, the AC50 under setting [2] was 6.51 µM [rising, single point].

On to `Cn1cc(CN2CCC(n3nccc3NC(=O)CCOc3ccccc3)CC2)cn1`, for which the cell number change is -8.26%. In addition, the AC50 under setting [2] was 0.00517 µM [falling, full curve, poor fit].

Take `COc1ccc(C(=O)Cn2c(NCCCO)nc3ccccc32)cc1OC`: the AC50 under setting [2] was 29.1 µM [rising, single point].

As to `CCOc1ccc(NC(=O)Cc2ccc(S(=O)(=O)N3CCOCC3)s2)cc1OCC`, the cell number change came out at 15.7%.

In the case of `Cc1ccc(C(C)C)c(OCC(O)CNC2CCCC2)c1` (configuration not stated), the cell number change is -15%.

Consider `CCn1cc([N+](=O)[O-])c(C(=O)Nc2c(C)nn(Cc3cccc(F)c3)c2C)n1`, for which the half-maximal activity concentration (AC50) reads like this: under setting [1], 3.66 µM [rising, single point]; under setting [2], 2.06 µM [rising, single point].

For `O=S1(=O)CC/C(=N/Nc2ccc(C(F)(F)F)cn2)c2cc(F)ccc21`, the cell number change was 69%.

For the compound `Cc1cc(C(=O)c2cnc(/N=C/N(C)C)s2)cc(C)c1O`, the cell number change came out at 6.62%.

`Cc1ccc(S(=O)(=O)N2CCN(C(=O)CSc3nccn3C)CC2)cc1`: the cell number change was -32.3%. Under setting [1], the AC50 was 0.82 µM [falling, full curve, poor fit]. For the same compound, the AC50 under setting [2] was 0.651 µM [falling, partial curve, poor fit].

On to `CCOC(=O)c1c(-c2ccccc2)csc1NC(=O)C(C)NCCCN1CCOCC1` (configuration not stated), for which the cell number change was determined as 17.9%.

For the compound `CCN(CC(=O)NCc1ccc(Cl)cc1)C(=O)CSc1ccccc1F`, the cell number change was -10.9%. Further, the AC50 under setting [2] was 0.00517 µM [falling, full curve, poor fit].

Take `CS(=O)(=O)N1CCC2(CC1)OCCN2S(=O)(=O)c1ccccc1`: the AC50 under setting [1] was 1.46 µM [falling, partial curve] and the AC50 under setting [2] is 6.51 µM [falling, single point].

Turning to `O=C(NC1=NCCS1)C1CC(=O)N(c2ccc(F)cc2)C1` (configuration not stated), the cell number change is -17.8%. In addition, the AC50 under setting [2] was 20.6 µM [falling, single point].

`Cn1c(CC(=O)Nc2ccccc2F)nnc1SCC(=O)Nc1nncs1`: the cell number change came out at 15.1%.

Consider `COc1ccc(S(=O)(=O)NNC(=O)C23CC4CC(CC(C4)C2)C3)cc1[N+](=O)[O-]`, for which the cell number change is -11%.

Consider `COc1ccc(-c2noc(COc3ccccc3OC)n2)cc1OC`, for which the AC50 is 4.11 µM [rising, single point] under setting [1] and 1.3 µM [rising, full curve] under setting [2].

As to `CS(=O)(=O)N1CCC(C(=O)NCc2ccncc2)CC1`, the cell number change was 0.476%. Further, under setting [2], the AC50 was 29.1 µM [falling, partial curve].

In the case of `CC(NC(=O)[C@@H](NC(=O)[C@@H]1Cc2ccccc2CN1)C(C)C)c1ccccc1` (some centres not stated), the cell number change was found to be 5.73%. Under setting [2], the AC50 is 20.6 µM [rising, single point].

On to `COc1ccc(NC(=O)c2ccccc2S(=O)c2ccccc2C#N)cc1` (configuration not stated), for which the cell number change came to 14.8%. Further, the AC50 under setting [2] is 0.164 µM [falling, single point].

As for `COc1ccccc1NC(=O)c1cc2c(=O)n(C)c3ccccc3c2n1C`, the cell number change was -6.92%. Besides, the AC50 under setting [2] is 0.651 µM [rising, full curve].

Regarding `CC(=O)N1CCN(c2ccc(NCc3ccco3)cc2)CC1`, the cell number change amounted to 1.02%. For the same compound, under setting [2], the AC50 was 0.116 µM [rising, full curve, poor fit].

On to `S=C(c1ccc(-c2cccc(Cl)c2)o1)N1CCCCC1`, for which the cell number change is -52.8%. In addition, the AC50 under setting [1] was 29.1 µM [falling, single point].

For `CCn1cc(/C=C(\NC(=O)c2ccc(OC)c(OC)c2)C(=O)NCCN2CCOCC2)c2ccccc21`, the cell number change was -45.7%. For the same compound, the AC50 under setting [2] was 29.1 µM [falling, single point].

As to `CCc1nc2ccc(C(=O)N3CCN(c4ccc([N+](=O)[O-])cc4)CC3)cc2nc1CC`, the cell number change was 18.2%. Under setting [2], the AC50 is 6.51 µM [rising, single point].

As for `OC(C#CCN1CCOCC1)(c1ccccc1)C1CCCCC1` (configuration not stated), the cell number change was -22.7%.

On to `CN1CCN(Cc2nc3ccccc3c(=O)n2Cc2nc(-c3ccc([N+](=O)[O-])cc3)cs2)CC1`, for which the cell number change was -49.8%. For the same compound, the AC50 under setting [1] is 18.4 µM [falling, partial curve, poor fit].

As to `CC1=C(C(=O)N2CCOCC2)C(c2ccc(-c3ccccc3)cc2)NC(=S)N1` (configuration not stated), the cell number change was -32.2%. Besides, the AC50 under setting [1] is 7.31 µM [falling, partial curve]. For the same compound, the AC50 under setting [2] was 6.51 µM [falling, single point].

`CC1CCC2C(=O)N(c3cc(Cl)ccc3OC(=O)c3ccco3)C(=O)C2C1` (configuration not stated): the cell number change is 5.24%. Under setting [2], the AC50 is 13 µM [falling, partial curve].

For the compound `O=C(C1CCC(=O)N(C2CC2)C1)N1CCC(Oc2cccc(F)c2)CC1` (configuration not stated), the cell number change was -9.41%. Moreover, the AC50 under setting [2] is 29.1 µM [rising, single point].

Take `CCCn1c(C)cc(=O)c2cc(NC(=O)c3cnccn3)ccc21`: the cell number change is 31.6%. In addition, the AC50 under setting [1] was 4.11 µM [rising, full curve]. Besides, the AC50 under setting [2] was 1.16 µM [rising, full curve].

With `NC(=O)C1Cc2ccccc2CN1S(=O)(=O)c1ccc(Cl)s1` (configuration not stated), the cell number change amounted to 21%. For the same compound, the half-maximal activity concentration (AC50) under setting [2] was 0.206 µM [rising, single point].

With `Cc1ccc(CC(=O)NCCS(=O)c2ccc(Cl)cc2)cc1` (configuration not stated), the cell number change was -21.6%.

For the compound `CCC(C(=O)NC(C)CCc1ccccc1)n1nc(C)n2c(cc3occc32)c1=O` (configuration not stated), the cell number change was -19.9%. Further, the AC50 under setting [2] was 0.291 µM [rising, partial curve].

For `COC(=O)c1ccc2c(c1)C(C)(C)C(/C=C/c1ccc(OC)c(OC)c1OC)=[N+]2C`, the cell number change was -42.8%. In addition, under setting [1], the AC50 is 18.4 µM [falling, single point]. The AC50 under setting [2] is 18.4 µM [falling, single point].
